Experimental findings from PMC7804152, “Structural basis for the multi-activity factor Rad5 in replication stress tolerance” are described below.

Sequences of proteins named here, by UniProt entry; tags and fusion partners are left off.
UniProt P15873: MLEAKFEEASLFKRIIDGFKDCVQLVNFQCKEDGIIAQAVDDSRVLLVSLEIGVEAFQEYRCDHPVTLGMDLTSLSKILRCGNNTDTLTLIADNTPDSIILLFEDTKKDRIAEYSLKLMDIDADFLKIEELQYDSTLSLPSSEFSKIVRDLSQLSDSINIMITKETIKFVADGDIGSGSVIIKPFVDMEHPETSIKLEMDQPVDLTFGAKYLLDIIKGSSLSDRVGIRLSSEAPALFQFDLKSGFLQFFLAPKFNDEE

These are yes or no findings as the source states them, for the method shown. Some results given as binding are weak or reduced against the parent protein; the word gives no strength. For part of these data: Tags and fused reporters may be left off the sequences shown.

Test [1] deals with KlRad5 (K. lactis Rad5 residues 163–1114) (K. lactis) (UniProt Q6CJM4). Briefly: dynamic light scattering; KlRad5 at 1 mg/ml, 25 °C, 20 mM Tris pH 7.5, 200 mM sodium chloride, 2 mM DTT; read with the crystal structure and negative-stain EM; both purified.
The target in test [2] is PCNA, yeast two-hybrid fusion (UniProt P15873). Briefly: two-hybrid; Gal4 activation-domain and DNA-binding-domain plasmids in reporter strains; growth on SC-Trp-Leu-His with or without 3 mM 3-amino-1,2,4-triazole.

B1: KlRad5 (K. lactis Rad5 residues 163–1114) (domain or fragment, UniProt Q6CJM4 163-1114)
chain: ESPMSSDKGRNRWSRYIGSIHTMGFATRPTVKPVPIGSRLGFKKSVPKDLPLGKSLQHQHCSHLVRLIDTSQDRELGRMPEDVARILYPLLDYSEQVSLEPYLLINNGKRFSVGDNIYIRIDCYLTSQAFVRIEGGSILNKSFINDHGMDTRQLHRAGAIMALFDAINIQPVYGDTKNEMIPNYQENTVSSSQFQDEALNINQLKSFYRITQSAASLQNLPETTPDESLFKLQLRRYQKQSLSWMLKREYEYSHLSEKAAEVSIDGNSMNPLWKKFRWPSNSKQGTPNHEDDCFFYANLYTGEFSIEKPVIKTIINGGILADEMGLGKTISALALICTASYDEAHEKKIESTKKPSMKEMSSQVDSSPLRHSQHKHDTYAYRTTLIVVPMSLLNQWQSEFEKANKDLKKRCEIYYGNNIKDLRAYVLGPNAPSVIITTYGIIQSEYGRTSTSGLFNVVFFRIILDEGHTIRNRSTRTSKAVIALRSSRKWILTGTPIINRLDDLFSLVQFLNLEPWSHINYWKRYVSVPFEKGNYAQAFDVINAVLEPVLLRRTKNMKDVDGKPLVSLPPKEVIVEKLQLSSSEKRVYQSMLEDAENSVKEGLAKGDLLKNYTNILVHILRLRQVCCHLDLLKKTPDLGDPDLEDLENSTQNISSILMPKNIKSPKSSISQDKLDALSANFRDIHSASEQLPSFECAICTTECIEPLSAVSITECLHTFCEPCLAEYIEFQQNKKLSINCPYCRMPISEANVLKLKEPIDAERGYELISFHSHFQSTKIKALLRHLKQIQETSPGEQIIVFSQFSSFLDILEIELRSHLPRDQVIIYKFDGRLDMKERTRILEQFHDKDLSCIKLLLLSLKTGGVGLNLTCASRAFMMDPWWSPGMEDQAIDRIHRIGQQQTVKVVRFIIDNSVEEKMLRIQERKRMLGDIVEGDEAERRQKRIEEIQMLFQ
As for B1, the binding result in test [1] is on record as “no binding (tested: 1 mg/ml)”.

B2: ScRad5 (S. cerevisiae Rad5), yeast two-hybrid fusion (protein, UniProt P32849 1-1169)
chain: MSHIEQEERKRFFNDDLDTSETSLNFKSENKESFLFANSHNDDDDDVVVSVSDTTEGEGDRSIVPVRREIEEEGQNQFITELLRIIPEMPKDLVMELNEKFGSQEEGLSLALSHYFDHNSGTSISKIPSSPNQLNTLSDTSNSTLSPSSFHPKRRRIYGFRNQTRLEDKVTWKRFIGALQVTGMATRPTVRPLKYGSQMKLKRSSEEISATKVYDSRGRKKASMASLVRIFDIQYDREIGRVSEDIAQILYPLLSSHEISFEVTLIFCDNKRLSIGDSFILQLDCFLTSLIFEERNDGESLMKRRRTEGGNKREKDNGNFGRTLTETDEELESRSKRLALLKLFDKLRLKPILDEQKALEKHKIELNSDPEIIDLDNDEICSNQVTEVHNNLRDTQHEEETMNLNQLKTFYKAAQSSESLKSLPETEPSRDVFKLELRNYQKQGLTWMLRREQEFAKAASDGEASETGANMINPLWKQFKWPNDMSWAAQNLQQDHVNVEDGIFFYANLHSGEFSLAKPILKTMIKGGILSDEMGLGKTVAAYSLVLSCPHDSDVVDKKLFDIENTAVSDNLPSTWQDNKKPYASKTTLIVVPMSLLTQWSNEFTKANNSPDMYHEVYYGGNVSSLKTLLTKTKTPPTVVLTTYGIVQNEWTKHSKGRMTDEDVNISSGLFSVNFYRIIIDEGHNIRNRTTVTSKAVMALQGKCKWVLTGTPIINRLDDLYSLVKFLELDPWRQINYWKTFVSTPFESKNYKQAFDVVNAILEPVLLRRTKQMKDKDGKPLVELPPKEVVIKRLPFSKSQDLLYKFLLDKAEVSVKSGIARGDLLKKYSTILVHILRLRQVCCHPGLIGSQDENDEDLSKNNKLVTEQTVELDSLMRVVSERFDNSFSKEELDAMIQRLKVKYPDNKSFQSLECSICTTEPMDLDKALFTECGHSFCEKCLFEYIEFQNSKNLGLKCPNCRNQIDACRLLALVQTNSNSKNLEFKPYSPASKSSKITALLKELQLLQDSSAGEQVVIFSQFSTYLDILEKELTHTFSKDVAKIYKFDGRLSLKERTSVLADFAVKDYSRQKILLLSLKAGGVGLNLTCASHAYMMDPWWSPSMEDQAIDRLHRIGQTNSVKVMRFIIQDSIEEKMLRIQEKKRTIGEAMDTDEDERRKRRIEEIQMLFE
As for B2, the binding entry in test [2] is “binds”.

B3: ScRad5 R187E/R229E/R241E (Sc3RE), yeast two-hybrid fusion (protein, UniProt P32849 1-1169)
chain: MSHIEQEERKRFFNDDLDTSETSLNFKSENKESFLFANSHNDDDDDVVVSVSDTTEGEGDRSIVPVRREIEEEGQNQFITELLRIIPEMPKDLVMELNEKFGSQEEGLSLALSHYFDHNSGTSISKIPSSPNQLNTLSDTSNSTLSPSSFHPKRRRIYGFRNQTRLEDKVTWKRFIGALQVTGMATEPTVRPLKYGSQMKLKRSSEEISATKVYDSRGRKKASMASLVEIFDIQYDREIGEVSEDIAQILYPLLSSHEISFEVTLIFCDNKRLSIGDSFILQLDCFLTSLIFEERNDGESLMKRRRTEGGNKREKDNGNFGRTLTETDEELESRSKRLALLKLFDKLRLKPILDEQKALEKHKIELNSDPEIIDLDNDEICSNQVTEVHNNLRDTQHEEETMNLNQLKTFYKAAQSSESLKSLPETEPSRDVFKLELRNYQKQGLTWMLRREQEFAKAASDGEASETGANMINPLWKQFKWPNDMSWAAQNLQQDHVNVEDGIFFYANLHSGEFSLAKPILKTMIKGGILSDEMGLGKTVAAYSLVLSCPHDSDVVDKKLFDIENTAVSDNLPSTWQDNKKPYASKTTLIVVPMSLLTQWSNEFTKANNSPDMYHEVYYGGNVSSLKTLLTKTKTPPTVVLTTYGIVQNEWTKHSKGRMTDEDVNISSGLFSVNFYRIIIDEGHNIRNRTTVTSKAVMALQGKCKWVLTGTPIINRLDDLYSLVKFLELDPWRQINYWKTFVSTPFESKNYKQAFDVVNAILEPVLLRRTKQMKDKDGKPLVELPPKEVVIKRLPFSKSQDLLYKFLLDKAEVSVKSGIARGDLLKKYSTILVHILRLRQVCCHPGLIGSQDENDEDLSKNNKLVTEQTVELDSLMRVVSERFDNSFSKEELDAMIQRLKVKYPDNKSFQSLECSICTTEPMDLDKALFTECGHSFCEKCLFEYIEFQNSKNLGLKCPNCRNQIDACRLLALVQTNSNSKNLEFKPYSPASKSSKITALLKELQLLQDSSAGEQVVIFSQFSTYLDILEKELTHTFSKDVAKIYKFDGRLSLKERTSVLADFAVKDYSRQKILLLSLKAGGVGLNLTCASHAYMMDPWWSPSMEDQAIDRLHRIGQTNSVKVMRFIIQDSIEEKMLRIQEKKRTIGEAMDTDEDERRKRRIEEIQMLFE
B3: in test [2], the binding result is given as “no binding”.
